{
  "source": "patent US6951651B2",
  "about": "“CTL epitope analogs” (priority 1999, dated 2005)",
  "key": {"T cell clone 3-3F4 [1]": {"tested_on": "T cell clone 3-3F4", "experiment": "Chromium release assay, peptide-sensitized targets lysed by T cell clone 3-3F4", "format": "cell-based, human", "details": "carboxyl terminal amide peptide", "procedure": "Nonamer peptides with the substitutions as shown at each position were synthesized as described in Example 1. […] Results of these assays are shown in the right-hand column of Table II, in terms of concentration of peptide (nM) in which specific killing was between 15 and 30 percent. Results presented are the average from at least three independent experiments carried out on different days using different batches of T cell […]. Peptides were tested using 10-fold dilutions, ranging from 500-0.00005 nM.\n(§1) To take advantage of the increased immunogenicity of peptides 44 and 46, while maintaining the universal recognition of the native peptide, library-directed changes were made to peptides 44 and 46, substituting back the native amino acids. A series of 21 peptides were constructed based upon the sequence of the tetra-substituted peptides 44 and 46 in each of the carboxyl terminal amidated and free acid forms. The peptides contained single, double, or triple substitutions of amino acids of the native sequence at the positions indicated. These peptides were assayed utilizing a standard chromium release assay with the screening T cell clone, 3-3F4, and a representative T cell clone (VB57) from another individual expressing a different T cell receptor."}, "HLA A*0201": {"target": "T1, HLA A*0201 (Homo sapiens, UniProt P04439, D140Y/D185E/D98H/E176V/E277Q/G131W/G231S/I119V/I121R/I166T/I218V/L300P/L318F/N151K/N90K/P208A/P217A/Q86G/Q94H/R138H/R169H/T345S)", "T1 construct": "endogenous in cells; host or cells: T2 cells (TAP-deficient); β2-microglobulin purchased from Sigma, catalogue number not given", "experiment": "T2 assembly assay (MHC binding affinity)", "procedure": "See the methods of Nijman et al., Eur. J. Immunol. 23:1215-1219 (1993).\nFor each analog to be tested, 250,000 T2 cells were washed twice and resuspended in serum free IMDM and incubated overnight with 100 μM peptide together with 15 μg/ml human β2-microglobulin (Sigma™, Lt. Louis, Mo.) at 37° C. in a 5% CO2 incubator. […] After washing twice with cold buffer, FITC-conjugated rat anti-mouse IgG2a/2b (1:40 dilution; Pharmingen™, San Diego, Calif.) was added and incubated for another 30 minutes at 4° C. The cells were washed twice in cold buffer, and mean fluorescence intensity (MFI) of 10^4 gated cells was measured using a FACSCalibur™.\nFluorescence ratio is defined as mean fluorescence with peptide/mean fluorescence without peptide. Results for the amidated peptides indicate only slight changes in MHC binding."}, "T cell clone VB57 [2]": {"tested_on": "T cell clone VB57", "experiment": "Chromium release assay, peptide-sensitized targets lysed by T cell clone VB57", "format": "cell-based, human", "details": "carboxyl terminal amide peptide", "from_the_text": "as §1"}, "[3]": {"tested_on": "peripheral blood CTL of HCMV-seropositive HLA A*0201 donors", "format": "cell-based, human", "details": "amidated peptides"}, "T cell clone 3-3F4 [4]": {"tested_on": "T cell clone 3-3F4", "experiment": "Flow-cytometric HLA A2-Ig dimer binding to T cell clone 3-3F4", "set-up": "species or system human", "details": "specific fluorescence, peptide-loaded HLA A2-Ig dimers", "procedure": "HLA A2-Ig dimer aliquots were individually loaded with a series of peptides, and incubated with two different T cell clones, 3-3F4 and VB57. The soluble HLA-A2-Ig complexes (HLA dimers) were loaded with peptide according to the methods of Greten et al., Proc. Natl. Acad. Sci. USA 95:7568-7573 (1998). For each peptide analog to be tested, 10 μg of HLA dimers in 10 μl PBS containing 0.02% NaN3 (Baker Chemical™, Phillipsburg, N.J.) was incubated for three days at 4° C. with 660-fold molar excess peptide. Dimers also were loaded with the pp65495-503 native peptide, an irrelevant peptide (pp54 B*0702 epitope), and 2 μl PBS buffer containing 0.02% NaN3, in all experiments to serve as controls. One microgram aliquots of peptide loaded dimers were mixed with 0.2 million of either T cell clone 3-3F4 or VB57 for 75 minutes on ice. Cells were washed in PBS containing 2% FBS and 0.02% NaN3 (WB), and subsequently stained with 0.9 μl/sample of goat anti-mouse IgG1-PE (Caltag™, Burlingame, Calif.). After two additional washings in WB, cells were analyzed by fluorescence-activated cell sorting (FACSCalibur™). Specific fluorescence was calculated as fluorescence ratio between the mean fluorescence of the peptide-loaded diners and the mean fluorescence of the buffer-loaded control diners. […] The fluorescence indices indicated in the Figure are an average of both experiments."}, "T cell clone VB57 [5]": {"tested_on": "T cell clone VB57", "experiment": "Flow-cytometric HLA A2-Ig dimer binding to T cell clone VB57", "set-up": "species or system human", "details": "specific fluorescence, peptide-loaded HLA A2-Ig dimers"}},
  "note": "Where two headings read alike, the source gives them in different places. Part of at least one peptide drawing is inferred or uncertain, most often the ends. Ends that are not written are not given here.",
  "data": [
    {"substance": "YLVPMVASV-NH2 [Peptide 115N]", "values": [
      {"measurement": "Peptide Concentration (nM), Amide, 3-3F4", "setting": "T cell clone 3-3F4 [1]", "value": 0.005, "unit": "nM"},
      {"measurement": "difference between acid and amide forms in binding to HLA A*0201", "setting": "HLA A*0201", "value": "not as pronounced"},
      {"measurement": "Peptide Concentration (nM), Amide, VB57", "setting": "T cell clone VB57 [2]", "value": 0.05, "unit": "nM"},
      {"measurement": "recognition by individuals' peripheral blood T cells after in vitro stimulation with the peptide", "setting": "[3]", "value": "more limited recognition"},
      {"measurement": "recognition by individuals' peripheral blood T cells after in vitro stimulation with the peptide", "setting": "[3]; listed as 115", "value": "three out of five individuals"},
      {"measurement": "HLA-Ig dimer binding to T cell clone 3-3F4", "setting": "T cell clone 3-3F4 [4]", "value": "bound well"}
    ]},
    {"substance": "NLLPMVASV-NH2 [Peptide 118N]", "values": [
      {"measurement": "Peptide Concentration (nM), Amide, 3-3F4", "setting": "T cell clone 3-3F4 [1]", "value": 0.05, "unit": "nM"},
      {"measurement": "difference between acid and amide forms in binding to HLA A*0201", "setting": "HLA A*0201", "value": "not as pronounced"},
      {"measurement": "HLA-Ig dimer binding to T cell clone VB57", "setting": "T cell clone VB57 [5]", "value": "poor binder"},
      {"measurement": "Peptide Concentration (nM), Amide, VB57", "setting": "T cell clone VB57 [2]", "value": 0.05, "unit": "nM"},
      {"measurement": "recognition by individuals' peripheral blood T cells after in vitro stimulation with the peptide", "setting": "[3]; listed as 118", "value": "recognized by all evaluated individuals"},
      {"measurement": "HLA-Ig dimer binding to T cell clone 3-3F4", "setting": "T cell clone 3-3F4 [4]", "value": "bound well"}
    ]}
  ]
}
